What is called AC50 is the midpoint of the concentration-response curve, whichever way the signal moves. Low values mean greater potency, high ones weaker potency.

A short description of this assay: qHTS Assay for Lipid Storage Modulators in Drosophila S3 Cells.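 As to cell number change: cells counted by Cell Tracker Red CMTPX staining in the red channel.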 The settings on record: BODIPY lipid droplet fluorescence, 18-24 h; for cell number change: measured here: cell count max response, cells fed with added oleic acid. The method in brief: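 Drosophila S3 cells loaded with oleic acid (400 uM, as added) and compounds at several concentrations; lipid droplets imaged by 488-nm laser-scanning cytometry, 500–530 nm intensity and object ratio to cell channel. Percent activity normalized to 20 uM Triacsin C.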
On the technique in general: Quantitative high-throughput screening tests each substance at several concentrations.

Where [1] appears, read: measured here: lipid fluorescence (Fed channel) AC50, cells fed with added oleic acid.
Where [2] appears, read: measured here: cell number channel AC50, cells fed with added oleic acid.

“And” between values parts separate entries of the source, which are not always exact repeats. Identical values can stand only once. Some of the results follow. The main result of the screen is listed elsewhere. These columns were measured beside it and carry no call. The list favours compounds with an active or inconclusive main result. Potencies come from curve fits of mixed quality, noted in brackets.

As for `COc1ccc(S(=O)(=O)N2CCC(C(=O)NC3CCCCC3)CC2)cc1C`, the cell number change turned out to be 25%.
As for `CC12CC3(C)CC(C)(C1)CC(C(N)=O)(C2)C3`, the cell number change is 9.23%. Moreover, the half-maximal activity concentration (AC50) under setting [1] is 0.0731 µM [falling, full curve, poor fit].
For `O=C(O)c1ccc(N2C(=O)CC(SC(=NCc3ccc4c(c3)OCO4)Nc3ccc(F)cc3)C2=O)cc1` (stereo not given), the cell number change was -32.9%. In addition, under setting [2], the AC50 is 0.103 µM [falling, full curve, poor fit].
Regarding `Cc1cc(C(=O)COC(=O)c2ccc(Br)o2)c(C)n1C`, the cell number change is 32%. Also, the AC50 under setting [2] is 32.6 µM [rising, single point]. For the same compound, under setting [1], the AC50 was 29.1 µM [rising, single point].
`CC(C)Nc1nc(Cl)nc(NN(C)c2nc(N(C)C)nc(N(C)C)n2)n1`: the cell number change was determined as 66.8%. Besides, the AC50 under setting [2] is 29.1 µM [rising, single point]. The AC50 under setting [1] was 23.1 µM [rising, single point].
For the compound `COc1ccc(-c2nnc(NC(=O)c3ccc(S(=O)(=O)N(C)CC4CCCO4)cc3)o2)c(OC)c1` (stereo not given), the cell number change is -2.02%. In addition, the AC50 under setting [1] is 2.06 µM [falling, partial curve].
With `COc1ccc(Nc2cc(Cl)nc(N)n2)cc1OC`, the cell number change was 27.2%. Moreover, under setting [1], the AC50 is 0.00461 µM [rising, full curve].
`C=C(C)COc1ccc(-c2[nH]ncc2Oc2ccccc2OCC)c(O)c1`: the cell number change is -72.2%. Further, under setting [2], the AC50 is 13 µM [falling, partial curve, poor fit]. Further, the half-maximal activity concentration (AC50) under setting [1] was 3.66 µM [falling, partial curve].
`CC(C)[C@H](NC(N)=O)C(=O)Nc1cccc(S(=O)(=O)NC2=NCCCCC2)c1`: the cell number change stood at 164%. Moreover, the concentration at half-maximal activity (AC50) under setting [2] was 29.1 µM [rising, partial curve]. For the same compound, the concentration at half-maximal activity (AC50) under setting [1] is 20.6 µM [rising, partial curve].
`O=S(=O)(c1cc(Cl)ccc1Cl)N1CCN2CCCC2C1` (stereo not given): the cell number change turned out to be 1.81%. Besides, under setting [1], the half-maximal activity concentration (AC50) is 0.13 µM [rising, full curve, poor fit].
For `O=C(Nc1cccc(Cl)c1)Nc1cccc(Cl)c1`, the cell number change is -32.6%. The AC50 under setting [2] is 7.31 µM [falling, partial curve]. Also, under setting [1], the AC50 is 10.3 µM [falling, partial curve].
As to `CCc1ccc(OCC(=O)NNC(=O)c2cc(S(=O)(=O)N(C)C)ccc2N2CCCC2)cc1`, the cell number change worked out at 16.6%. Also, the concentration at half-maximal activity (AC50) under setting [1] is 29.1 µM [rising, single point].
As for `CC(NC(=O)CSC1=NCCS1)c1ccccc1` (stereo not given), the cell number change worked out at 0.16%. The AC50 under setting [1] is 29.1 µM [falling, single point].
With `CSCC[C@H](NC(=O)NCCC1=CCCCC1)C(=O)O`, the cell number change was -76.7%. Besides, under setting [2], the concentration at half-maximal activity (AC50) was 32.6 µM [falling, partial curve]. Further, under setting [1], the concentration at half-maximal activity (AC50) was 29.1 µM [falling, single point].
Turning to `CC1CC(C)CN(CCCNC(=O)CCC(=O)N2CC(C)Oc3ccccc32)C1` (stereo not given), the cell number change was determined as 11.5%.
For `COC(=O)c1cccc(NC(=O)CSc2nnc(C)n2Cc2ccccc2)c1`, the cell number change amounted to 11.9%. Under setting [1], the half-maximal activity concentration (AC50) was 2.06 µM [rising, full curve].
On to `Cc1cc(C)cc(NC(=O)c2ccc3nc[nH]c3c2)c1`, for which the cell number change turned out to be 12.7%. The AC50 under setting [1] was 29.1 µM [rising, partial curve].
With `C/C(=N\N=C1\NC(=O)C(CC(=O)Nc2ccc(C)c(Cl)c2)S1)C(C)(C)C` (stereo not given), the cell number change is -47.7%. For the same compound, under setting [2], the AC50 was 20.6 µM [falling, single point].
For `O=C(Nc1ccc(S(=O)(=O)N2CCCCCC2)cc1)c1ccc(Br)o1`, the cell number change was 14.4%. The half-maximal activity concentration (AC50) under setting [1] was 29.1 µM [falling, single point].
Turning to `COc1ccc(N2C(=O)c3ccccc3NC2c2ccc(NC(C)=O)cc2)c(OC)c1` (stereo not given), the cell number change is 7.62%.
`Cc1cc(-c2ccccc2)nnc1NCCN1CCOCC1`: the cell number change was -9.4%. In addition, the concentration at half-maximal activity (AC50) under setting [1] was 5.8 µM [rising, partial curve].
In the case of `COn1c(-c2ccccc2)nc2ncccc21`, the cell number change is -1.77%.
As for `COc1ccc(S(=O)(=O)N2CCC(Cc3ccccc3)CC2)cc1C(N)=O`, the cell number change stood at 12.9%. Under setting [1], the AC50 was 10.3 µM [falling, single point].
With `CC(C)N(C(=O)COC(=O)c1ccc(Cl)s1)c1ccccc1`, the cell number change is -15.7%.
With `CCn1c(Cc2ccccc2)nnc1SCC(=O)c1c(N)n(C2CC2)c(=O)[nH]c1=O`, the cell number change came to 12.3%. Moreover, under setting [1], the AC50 is 5.8 µM [falling, partial curve, poor fit].
Turning to `O=C(COc1ccc2ccc(=O)oc2c1)NC1CCN(Cc2ccccc2)CC1`, the cell number change is -0.283%. In addition, the AC50 under setting [1] was 29.1 µM [rising, single point].
`CC1=CC2=C(OC1N(C)C)c1cccc3cccc(c13)C2=O` (stereo not given): the cell number change was found to be 1.56%. Besides, the AC50 under setting [1] was 6.51 µM [rising, single point].
`O=C(N/N=C1\C(=O)c2cccc3cccc1c23)c1ccc(O)cc1`: the cell number change is -50.3%. Under setting [2], the half-maximal activity concentration (AC50) is 35.5 µM [falling, single point]. Besides, the AC50 under setting [1] is 14.1 µM [falling, single point].
As for `CCOc1ccc(-n2c(N)c(C(=O)NCC3CCCO3)sc2=S)cc1` (stereo not given), the cell number change came to 6.69%. Besides, under setting [1], the AC50 was 0.58 µM [rising, single point].
As for `Cc1cc(Nc2nc3ccccc3nc2Cl)n(-c2ccc([N+](=O)[O-])cc2)n1`, the AC50 under setting [2] was 6.51 µM [rising, single point] and the AC50 under setting [1] is 6.51 µM [rising, single point].
Turning to `O=C(Nc1ccccc1C(=O)O)c1cccc(N2C(=O)c3ccccc3C2=O)c1`, the cell number change was determined as 13.3%.
For the compound `CCOC(=O)c1c(NC(=O)CSc2nnc(CNc3ccc(F)cc3)o2)sc(C(C)=O)c1C`, the cell number change came out at 0.885%. The AC50 under setting [1] is 0.291 µM [rising, partial curve, poor fit].
As for `Cc1ccc(N/C(N)=N/c2nc(CSc3ccc(C)cc3)cc(=O)[nH]2)cc1`, the cell number change turned out to be 13.3%.
Regarding `O=C(Cn1cccc1C(=O)c1ccccc1)NCCc1ccc(Cl)cc1`, the cell number change is 79.5%. In addition, under setting [2], the AC50 was 18.4 µM [rising, partial curve].
Regarding `O=C(Cn1cc(C(=O)c2ccco2)c2ccccc21)Nc1ccccc1`, the AC50 under setting [1] is 0.00517 µM [rising, full curve, poor fit].
Consider `NS(=O)(=O)c1ccc(NC(=S)NC2CCCC2)cc1`, for which the cell number change is -0.235%.
Take `c1ccc(-c2nnc(-c3ccncc3)o2)cc1`: the cell number change stood at 91.8%. For the same compound, under setting [2], the AC50 was 7.31 µM [rising, partial curve].
As for `Cc1c(C(=O)N2CCOCC2)[nH]c2c1C(=O)CC(c1ccccc1Cl)C2` (stereo not given), the cell number change is 2.23%. Also, under setting [1], the AC50 was 4.11 µM [rising, full curve].
For `CN1CCN(C(=O)C2CCCN(S(=O)(=O)c3ccc(F)cc3)C2)CC1` (stereo not given), the cell number change was -1.65%. For the same compound, the half-maximal activity concentration (AC50) under setting [1] was 18.4 µM [rising, partial curve].
As to `CCOc1cc(C2C(C#N)=C(N)OC(C)=C2C(C)=O)cc(Br)c1O` (stereo not given), the AC50 under setting [1] was 0.731 µM [falling, full curve].
For `O=C(O)c1ccc(-n2cccc2)cc1O`, the cell number change was found to be 7.4%. Moreover, the AC50 under setting [1] is 20.6 µM [falling, partial curve].
For the compound `COc1cccc(N2CC(C(=O)Nc3ccc(C(=O)OC(C)C)cc3)CC2=O)c1` (stereo not given), the cell number change was -27.3%. Also, the AC50 under setting [1] is 11.6 µM [falling, partial curve].
Take `CCOC(=O)N1CCN(S(=O)(=O)c2ccc(C(=O)N(CCCN(C)C)c3nc4c(C)c(C)ccc4s3)cc2)CC1`: the cell number change amounted to 38%. In addition, under setting [2], the half-maximal activity concentration (AC50) was 25.9 µM [rising, single point]. For the same compound, the AC50 under setting [1] was 0.13 µM [falling, full curve, poor fit].
Consider `CCC(=O)N1CCCN(S(=O)(=O)c2ccc(C)cc2)C1c1ccc(OC)cc1` (stereo not given), for which the cell number change is -15.4%. For the same compound, the AC50 under setting [1] was 29.1 µM [rising, partial curve, poor fit].
As for `O=C(CSc1nc(=O)n(CCCN2CCOCC2)c2c1CCCC2)Nc1cccc(Cl)c1`, the cell number change was -7.91%. Further, under setting [1], the concentration at half-maximal activity (AC50) is 2.91 µM [falling, partial curve].
Regarding `COCCn1cnc2c1c(=O)n(CC(=O)NCC(F)(F)F)c(=O)n2Cc1ccccc1`, the cell number change amounted to 22.5%. In addition, under setting [2], the AC50 was 0.82 µM [rising, full curve, poor fit].
For the compound `COc1ccc(N2C(=O)CCC2(C(N)=O)c2ccccc2)cc1` (stereo not given), the cell number change worked out at 6.78%. In addition, under setting [2], the concentration at half-maximal activity (AC50) was 0.00461 µM [falling, full curve, poor fit].
For `COc1cc2c(cc1OC)C(c1cccs1)N(C(=O)c1cccnc1)CC2` (stereo not given), the AC50 under setting [2] was 0.103 µM [rising, single point].
With `CCOc1ccc(CC2NCCc3cc(OCC)c(OCC)cc32)cc1OCC` (stereo not given), the cell number change was found to be 18.2%. Moreover, the AC50 under setting [2] was 0.082 µM [rising, full curve, poor fit].
In the case of `Cc1ccc2cc3c(nc2c1)N(c1ccccc1)CC3`, under setting [2], the AC50 was 0.146 µM [rising, full curve].
For the compound `O=C(O)CSc1nc2c(c(C(F)(F)F)n1)CCCC2`, the cell number change is -54.1% and -44.7%. The AC50 under setting [2] was 6.51 µM [falling, partial curve] and 29.1 µM [falling, single point]. Further, the half-maximal activity concentration (AC50) under setting [1] is 29.1 µM [falling, single point].
Take `Cc1ccc(N2CCN(S(=O)(=O)c3cccs3)CC2C)cc1` (stereo not given): the AC50 under setting [1] is 29.1 µM [falling, single point].
On to `COC(=O)CSc1nc2ccc(NC(C)=O)cc2s1`, for which the cell number change was -3.3%. For the same compound, under setting [1], the AC50 was 0.58 µM [falling, single point].
As for `CC(C)NC(=S)N/N=C/c1cccs1`, the cell number change is -60.9%. Besides, under setting [2], the AC50 was 0.13 µM [falling, full curve]. In addition, the AC50 under setting [1] is 0.13 µM [falling, full curve, poor fit].
In the case of `CN(C)C(=S)NCc1ccccc1`, the cell number change is 23.4%. Besides, the AC50 under setting [1] is 20.6 µM [rising, partial curve, poor fit].
Take `COCCN(C(=O)CSc1nnc(-c2cccs2)n1N)c1c(N)n(Cc2ccccc2)c(=O)[nH]c1=O`: the cell number change amounted to 17.1%.
Same read-out and setting: next, `Cc1cc(NC(=O)C(C)C)ncc1NC(=O)CCc1ccccc1`: 3.26%.
`Cc1nn(-c2ccccc2)c(C)c1C(=O)OCC(=O)N(C)C1CCS(=O)(=O)C1` (stereo not given): the cell number change was -21.2%. Besides, under setting [2], the concentration at half-maximal activity (AC50) was 0.517 µM [falling, full curve, poor fit].
Consider `O=C(O)CCCNS(=O)(=O)c1ccc(F)cc1`, for which the cell number change was 0.707%. Further, the AC50 under setting [1] was 0.103 µM [falling, full curve, poor fit].
As for `CCC(C(=O)NC1CCCC1)N(C(=O)Cn1nnc(-c2ccc(OC)c(OC)c2)n1)C1CCCCC1` (stereo not given), the cell number change is -8.86%. Moreover, the AC50 under setting [1] is 0.651 µM [rising, full curve, poor fit].

Source of the values: PubChem BioAssay AID2685 (National Center for Advancing Translational Sciences (NCATS), 2010).
